Experimental data taken from the supplement of paper PMC10849652.
This is one part of the list.

Protein sequences, listed by entry. Tags and fused reporters are not part of them. Lines headed by an entry give the natural chain unless they say otherwise; changes in a name come on top.
UniProt Q14691: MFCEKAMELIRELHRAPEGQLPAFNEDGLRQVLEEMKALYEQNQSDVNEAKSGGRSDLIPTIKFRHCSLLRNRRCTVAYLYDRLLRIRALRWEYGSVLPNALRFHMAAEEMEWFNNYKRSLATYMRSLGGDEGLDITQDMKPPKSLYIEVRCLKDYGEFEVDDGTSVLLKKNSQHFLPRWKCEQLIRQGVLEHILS
UniProt Q3T906: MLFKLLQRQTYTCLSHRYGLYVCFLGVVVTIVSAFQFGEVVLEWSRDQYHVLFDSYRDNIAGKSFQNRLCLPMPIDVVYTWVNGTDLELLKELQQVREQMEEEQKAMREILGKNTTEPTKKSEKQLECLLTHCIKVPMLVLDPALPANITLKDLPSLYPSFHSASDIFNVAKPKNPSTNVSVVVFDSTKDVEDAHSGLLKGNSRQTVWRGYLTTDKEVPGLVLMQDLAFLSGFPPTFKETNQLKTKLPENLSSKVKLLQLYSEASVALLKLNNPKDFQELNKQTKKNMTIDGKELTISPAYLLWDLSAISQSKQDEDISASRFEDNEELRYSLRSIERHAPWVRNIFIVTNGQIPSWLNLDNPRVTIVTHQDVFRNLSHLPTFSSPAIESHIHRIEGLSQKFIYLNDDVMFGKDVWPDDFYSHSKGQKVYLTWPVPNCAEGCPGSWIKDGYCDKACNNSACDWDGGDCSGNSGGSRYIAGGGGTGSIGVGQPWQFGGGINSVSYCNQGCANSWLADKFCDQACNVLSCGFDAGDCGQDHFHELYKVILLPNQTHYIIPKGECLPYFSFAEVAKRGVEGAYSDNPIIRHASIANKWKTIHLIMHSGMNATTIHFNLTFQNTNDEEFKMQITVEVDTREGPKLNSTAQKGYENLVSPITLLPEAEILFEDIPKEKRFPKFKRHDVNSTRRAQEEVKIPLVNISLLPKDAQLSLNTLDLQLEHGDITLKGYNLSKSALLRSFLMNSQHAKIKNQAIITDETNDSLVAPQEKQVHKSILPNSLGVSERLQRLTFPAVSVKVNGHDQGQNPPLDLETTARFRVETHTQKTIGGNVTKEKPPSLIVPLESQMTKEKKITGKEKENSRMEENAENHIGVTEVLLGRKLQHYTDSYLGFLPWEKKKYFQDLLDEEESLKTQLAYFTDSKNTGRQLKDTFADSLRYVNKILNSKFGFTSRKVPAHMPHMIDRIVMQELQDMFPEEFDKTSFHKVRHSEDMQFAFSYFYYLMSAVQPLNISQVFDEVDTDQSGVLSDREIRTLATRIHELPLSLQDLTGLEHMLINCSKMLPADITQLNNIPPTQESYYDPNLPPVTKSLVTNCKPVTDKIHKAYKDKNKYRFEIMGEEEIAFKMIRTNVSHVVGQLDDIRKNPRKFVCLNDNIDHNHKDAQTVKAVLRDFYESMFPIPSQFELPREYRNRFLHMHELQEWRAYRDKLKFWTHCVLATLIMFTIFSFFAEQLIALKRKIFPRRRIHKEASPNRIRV
UniProt P04899, whole entry, looked up: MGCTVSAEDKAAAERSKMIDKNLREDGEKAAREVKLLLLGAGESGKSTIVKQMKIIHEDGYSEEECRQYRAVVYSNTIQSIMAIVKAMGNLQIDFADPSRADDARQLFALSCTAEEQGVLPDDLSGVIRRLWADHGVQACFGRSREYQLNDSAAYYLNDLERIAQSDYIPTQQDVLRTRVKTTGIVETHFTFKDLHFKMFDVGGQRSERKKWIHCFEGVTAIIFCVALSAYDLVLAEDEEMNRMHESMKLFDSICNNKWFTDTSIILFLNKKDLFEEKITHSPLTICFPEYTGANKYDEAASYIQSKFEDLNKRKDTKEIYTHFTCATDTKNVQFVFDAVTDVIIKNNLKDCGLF
UniProt P63218: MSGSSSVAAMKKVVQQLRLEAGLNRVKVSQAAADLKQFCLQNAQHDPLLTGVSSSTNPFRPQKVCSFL
UniProt P36959: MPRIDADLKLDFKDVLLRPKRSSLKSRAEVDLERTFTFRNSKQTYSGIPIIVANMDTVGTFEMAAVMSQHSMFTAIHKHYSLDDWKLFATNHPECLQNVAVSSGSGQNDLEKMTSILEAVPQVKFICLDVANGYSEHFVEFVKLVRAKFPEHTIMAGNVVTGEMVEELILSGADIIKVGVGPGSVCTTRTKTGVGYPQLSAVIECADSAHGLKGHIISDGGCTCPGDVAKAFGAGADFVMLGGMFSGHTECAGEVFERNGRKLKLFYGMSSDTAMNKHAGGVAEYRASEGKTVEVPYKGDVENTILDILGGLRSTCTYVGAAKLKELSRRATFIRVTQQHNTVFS
UniProt Q96CP6, whole entry, looked up: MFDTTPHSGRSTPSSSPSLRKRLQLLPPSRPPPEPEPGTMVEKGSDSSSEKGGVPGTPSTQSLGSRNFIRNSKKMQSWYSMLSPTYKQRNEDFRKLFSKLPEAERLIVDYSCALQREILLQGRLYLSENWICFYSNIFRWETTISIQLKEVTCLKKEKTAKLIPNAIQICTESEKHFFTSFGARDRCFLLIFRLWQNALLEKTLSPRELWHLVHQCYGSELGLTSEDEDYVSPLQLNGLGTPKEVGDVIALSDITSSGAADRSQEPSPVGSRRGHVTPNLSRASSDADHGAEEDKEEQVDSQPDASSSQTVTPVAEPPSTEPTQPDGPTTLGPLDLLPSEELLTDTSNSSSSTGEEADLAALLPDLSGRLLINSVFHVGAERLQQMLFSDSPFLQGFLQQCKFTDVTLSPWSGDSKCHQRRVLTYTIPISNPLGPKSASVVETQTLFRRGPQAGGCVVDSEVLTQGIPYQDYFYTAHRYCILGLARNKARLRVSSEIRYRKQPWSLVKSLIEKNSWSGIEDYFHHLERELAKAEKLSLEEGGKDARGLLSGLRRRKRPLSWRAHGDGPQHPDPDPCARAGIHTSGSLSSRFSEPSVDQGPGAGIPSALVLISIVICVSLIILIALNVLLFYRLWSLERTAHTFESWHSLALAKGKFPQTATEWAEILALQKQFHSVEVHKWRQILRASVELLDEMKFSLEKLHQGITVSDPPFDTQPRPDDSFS
UniProt P49448: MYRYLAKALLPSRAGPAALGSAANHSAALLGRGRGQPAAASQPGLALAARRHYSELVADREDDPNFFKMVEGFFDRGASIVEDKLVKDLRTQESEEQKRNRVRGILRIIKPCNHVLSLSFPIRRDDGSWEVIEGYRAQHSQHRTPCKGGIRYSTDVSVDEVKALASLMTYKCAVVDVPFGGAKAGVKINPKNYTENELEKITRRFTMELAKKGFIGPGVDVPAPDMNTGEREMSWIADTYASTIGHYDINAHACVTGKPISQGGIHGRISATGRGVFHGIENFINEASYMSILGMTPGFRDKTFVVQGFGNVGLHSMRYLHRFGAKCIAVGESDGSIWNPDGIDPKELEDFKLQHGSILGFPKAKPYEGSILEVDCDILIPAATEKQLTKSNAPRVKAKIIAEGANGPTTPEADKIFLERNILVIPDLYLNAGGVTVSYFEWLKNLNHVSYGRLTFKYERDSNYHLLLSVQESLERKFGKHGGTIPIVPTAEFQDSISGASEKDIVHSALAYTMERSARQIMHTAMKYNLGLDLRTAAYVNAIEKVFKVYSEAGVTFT
UniProt Q14749: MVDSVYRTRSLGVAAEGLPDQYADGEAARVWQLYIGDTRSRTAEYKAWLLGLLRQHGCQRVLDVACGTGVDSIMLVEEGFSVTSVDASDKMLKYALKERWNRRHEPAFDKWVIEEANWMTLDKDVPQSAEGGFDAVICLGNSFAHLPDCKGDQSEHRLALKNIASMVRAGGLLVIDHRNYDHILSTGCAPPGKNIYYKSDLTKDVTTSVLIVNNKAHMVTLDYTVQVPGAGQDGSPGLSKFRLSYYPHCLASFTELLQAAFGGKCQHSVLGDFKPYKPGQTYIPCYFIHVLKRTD
UniProt Q86UL3: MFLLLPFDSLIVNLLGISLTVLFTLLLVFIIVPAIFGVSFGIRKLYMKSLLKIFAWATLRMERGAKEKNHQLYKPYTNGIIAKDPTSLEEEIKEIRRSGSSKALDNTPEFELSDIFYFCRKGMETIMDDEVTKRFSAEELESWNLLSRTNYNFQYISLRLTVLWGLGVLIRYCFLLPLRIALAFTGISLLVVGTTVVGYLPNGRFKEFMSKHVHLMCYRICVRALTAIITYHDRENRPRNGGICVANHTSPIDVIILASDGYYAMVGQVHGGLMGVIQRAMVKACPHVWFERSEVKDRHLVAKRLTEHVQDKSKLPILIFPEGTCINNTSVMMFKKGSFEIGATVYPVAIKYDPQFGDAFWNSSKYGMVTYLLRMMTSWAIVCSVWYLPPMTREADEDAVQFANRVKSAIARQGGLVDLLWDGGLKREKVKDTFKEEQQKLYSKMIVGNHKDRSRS
UniProt Q9HAV0, whole entry, looked up: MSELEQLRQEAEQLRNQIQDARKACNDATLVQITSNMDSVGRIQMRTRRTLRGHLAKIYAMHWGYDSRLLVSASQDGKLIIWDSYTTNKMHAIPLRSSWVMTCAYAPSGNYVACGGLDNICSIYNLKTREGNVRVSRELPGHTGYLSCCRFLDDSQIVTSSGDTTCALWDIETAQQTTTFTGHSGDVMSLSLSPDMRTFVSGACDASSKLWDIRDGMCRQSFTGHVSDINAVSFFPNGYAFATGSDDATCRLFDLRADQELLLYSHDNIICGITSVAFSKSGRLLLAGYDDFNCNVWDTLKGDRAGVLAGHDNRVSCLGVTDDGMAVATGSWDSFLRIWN
UniProt Q9Y692: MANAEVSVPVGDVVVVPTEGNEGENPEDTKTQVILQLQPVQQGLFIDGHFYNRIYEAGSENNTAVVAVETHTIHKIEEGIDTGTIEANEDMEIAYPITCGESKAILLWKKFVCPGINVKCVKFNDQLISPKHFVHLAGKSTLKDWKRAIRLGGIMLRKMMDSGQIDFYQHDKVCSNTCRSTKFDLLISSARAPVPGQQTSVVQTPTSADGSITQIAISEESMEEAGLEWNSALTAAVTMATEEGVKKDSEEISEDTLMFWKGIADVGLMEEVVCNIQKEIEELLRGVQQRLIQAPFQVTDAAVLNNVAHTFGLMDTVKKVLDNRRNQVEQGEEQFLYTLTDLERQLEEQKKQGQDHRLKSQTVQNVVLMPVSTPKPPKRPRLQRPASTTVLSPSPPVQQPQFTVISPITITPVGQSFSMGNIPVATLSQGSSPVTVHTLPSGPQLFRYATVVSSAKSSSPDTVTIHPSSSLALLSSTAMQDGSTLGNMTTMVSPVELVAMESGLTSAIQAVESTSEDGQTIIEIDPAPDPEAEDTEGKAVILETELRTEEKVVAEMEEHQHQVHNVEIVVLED
UniProt Q92896: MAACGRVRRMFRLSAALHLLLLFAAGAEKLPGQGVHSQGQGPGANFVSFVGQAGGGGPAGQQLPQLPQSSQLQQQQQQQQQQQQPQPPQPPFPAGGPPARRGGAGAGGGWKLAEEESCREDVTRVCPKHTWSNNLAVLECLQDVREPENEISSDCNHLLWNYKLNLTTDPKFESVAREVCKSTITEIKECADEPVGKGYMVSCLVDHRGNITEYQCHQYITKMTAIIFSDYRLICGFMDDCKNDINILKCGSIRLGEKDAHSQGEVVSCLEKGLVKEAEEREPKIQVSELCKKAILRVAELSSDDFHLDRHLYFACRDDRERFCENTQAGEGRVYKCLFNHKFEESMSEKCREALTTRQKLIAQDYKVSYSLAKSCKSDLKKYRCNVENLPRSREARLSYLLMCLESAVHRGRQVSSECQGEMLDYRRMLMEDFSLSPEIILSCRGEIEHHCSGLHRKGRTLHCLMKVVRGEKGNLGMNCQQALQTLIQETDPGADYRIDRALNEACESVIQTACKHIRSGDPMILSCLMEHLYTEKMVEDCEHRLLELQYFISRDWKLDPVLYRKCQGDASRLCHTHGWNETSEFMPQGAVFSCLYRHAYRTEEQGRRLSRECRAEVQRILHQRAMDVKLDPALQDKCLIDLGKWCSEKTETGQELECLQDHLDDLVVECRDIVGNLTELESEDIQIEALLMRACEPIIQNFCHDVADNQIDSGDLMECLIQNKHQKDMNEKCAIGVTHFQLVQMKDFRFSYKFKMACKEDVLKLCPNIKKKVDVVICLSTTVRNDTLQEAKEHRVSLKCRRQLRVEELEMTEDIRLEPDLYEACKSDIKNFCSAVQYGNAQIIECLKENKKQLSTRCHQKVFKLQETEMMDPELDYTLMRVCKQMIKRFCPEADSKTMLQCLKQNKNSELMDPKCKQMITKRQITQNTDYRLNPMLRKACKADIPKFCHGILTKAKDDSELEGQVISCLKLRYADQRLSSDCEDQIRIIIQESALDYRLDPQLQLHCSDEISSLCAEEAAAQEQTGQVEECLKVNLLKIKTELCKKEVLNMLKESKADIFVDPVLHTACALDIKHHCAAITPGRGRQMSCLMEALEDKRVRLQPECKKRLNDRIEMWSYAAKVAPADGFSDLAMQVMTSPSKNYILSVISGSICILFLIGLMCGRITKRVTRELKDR
UniProt P17900: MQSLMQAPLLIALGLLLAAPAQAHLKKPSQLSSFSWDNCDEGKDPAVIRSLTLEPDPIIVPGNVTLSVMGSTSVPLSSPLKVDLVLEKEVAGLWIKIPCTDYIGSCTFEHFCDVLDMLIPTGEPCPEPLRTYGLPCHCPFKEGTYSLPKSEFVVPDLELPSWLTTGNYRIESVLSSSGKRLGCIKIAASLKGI

Assays:
Assay in all cases: log2 fold change, soluble protein after heating vs DMSO (PISA); higher = thermal stabilisation; K562 cells, 10 uM, 30 min; active = over 0.2 and 3.5 SD of the protein, either way, in both replicates (recomputed)
bafetinib = compound: Cc1ccc(NC(=O)c2ccc(CN3CC[C@H](N(C)C)C3)c(C(F)(F)F)c2)cc1Nc1nccc(-c2cncnc2)n1 [bafetinib]
Outline: (§1)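 K562 cells at 2×10^6 cells/mL were given 10 μM compound for 30 min. Aliquots then went through 3 min of heating across 48°C-58°C, were pooled, and were extracted in PBS with 0.5% NP-40 at 4°C, and the supernatant after 21,000xg for 90 min was quantified by TMTpro 16plex LC-MS/MS with channel sums equalised. Thermal stability relative to control samples, from duplicates, is given as log2 fold change.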

[1] = compound: Cc1cccc(CC(=O)N2CCc3c2ccc(-c2cn(C)c4ncnc(N)c24)c3F)n1
Outline: as §1

nilotinib = compound: Cc1cn(-c2cc(NC(=O)c3ccc(C)c(Nc4nccc(-c5cccnc5)n4)c3)cc(C(F)(F)F)c2)cn1 [nilotinib]
Outline: as §1

[2] = compound: Cc1nc(Nc2n[nH]c3c2CN(C(=O)N[C@H](CN(C)C)c2ccccc2)C3(C)C)c2sccc2n1
Outline: as §1

dasatinib = compound: Cc1nc(Nc2ncc(C(=O)Nc3c(C)cccc3Cl)s2)cc(N2CCN(CCO)CC2)n1 [dasatinib]
Outline: as §1

[3] = compound: Cc1ncc(-c2ccnc(Nc3ccc(S(C)(=O)=O)cc3)n2)n1C(C)C
Outline: as §1

[4] = compound: Cn1cc(-c2ccc3c(c2)CCN3C(=O)Cc2cccc(C(F)(F)F)c2)c2c(N)ncnc21
Outline: as §1

[5] = compound: Cn1cc(-c2ccc3nnc(C(F)(F)c4ccc5ncccc5c4)n3n2)cn1
Outline: as §1

tipifarnib = compound: Cn1cncc1[C@@](N)(c1ccc(Cl)cc1)c1ccc2c(c1)c(-c1cccc(Cl)c1)cc(=O)n2C [tipifarnib]
Outline: as §1

mubritinib = compound: FC(F)(F)c1ccc(/C=C/c2nc(COc3ccc(CCCCn4ccnn4)cc3)co2)cc1 [mubritinib]
Outline: as §1

Target	log2 fold change (bafetinib)	log2 fold change [1]	log2 fold change (nilotinib)	log2 fold change [2]	log2 fold change (dasatinib)	log2 fold change [3]	log2 fold change [4]	log2 fold change [5]	log2 fold change (tipifarnib)	log2 fold change (mubritinib)
GINS1 (UniProt Q14691)	inactive: 0.012	inactive: -0.007	inactive: 0.031	inactive: -0.094	inactive: -0.167	inactive: -0.068	inactive: 0.06	inactive: -0.114	inactive: -0.042	inactive: 0.113
GNPTAB (UniProt Q3T906)	inactive: -0.064	inactive: -0.115	inactive: 0.047	inactive: -0.082	inactive: 0.006	inactive: -0.001	inactive: -0.051	inactive: 0.012	inactive: 0.108	inactive: 0.108
GNAI2 isoform 4 (UniProt P04899)	inactive: 0.079	inactive: -0.033	inactive: 0.13	inactive: 0.011	inactive: 0.028	inactive: -0.007	inactive: 0.001	inactive: 0.017	inactive: -0.04	inactive: -0.03
GMPS (UniProt P49915)	inactive: 0.007	inactive: 0.023	inactive: -0.046	inactive: 0.006	inactive: -0.101	inactive: -0.027	inactive: 0.087	inactive: 0	inactive: -0.136	inactive: 0.011
GNG5 (UniProt P63218)	inactive: 0.013	inactive: -0.048	inactive: 0.12	inactive: 0.023	inactive: 0.06	inactive: -0.051	inactive: 0.027	inactive: 0.169	inactive: 0.027	inactive: 0.039
GMPR (UniProt P36959)	inactive: -0.026	inactive: 0.014	inactive: -0.016	inactive: 0.017	inactive: -0.039	inactive: -0.007	inactive: 0.015	inactive: 0.016	inactive: -0.063	inactive: 0.014
GRAMD1A (UniProt Q96CP6)	inactive: -0.103									
GLUD2 (UniProt P49448)	inactive: 0.234	inactive: 0.02	active: 0.478	inactive: 0.21	inactive: -0.021	inactive: -0.031	active: 0.265	inactive: -0.028	inactive: 0.079	inactive: 0.041
GNMT (UniProt Q14749)	inactive: 0.106	inactive: 0.209	inactive: 0.029	inactive: 0.043	inactive: -0.196	inactive: 0.082	inactive: 0.081	inactive: 0.114	inactive: 0.012	inactive: 0.101
GPAT4 (UniProt Q86UL3)	inactive: -0.138	inactive: -0.028	inactive: -0.047	inactive: 0.049	inactive: -0.024	inactive: -0.009	inactive: 0.093	inactive: -0.018	inactive: -0.069	inactive: -0.008
GNB4 (UniProt Q9HAV0)	inactive: 0.071	inactive: 0.051	inactive: 0.22	inactive: 0.066	inactive: 0.107	inactive: -0.043	inactive: 0.018	inactive: -0.174	inactive: -0.061	inactive: 0.07
GNB2 (UniProt P62879)	inactive: 0.12	inactive: -0.002	inactive: 0.077	inactive: -0.018	inactive: 0.057	inactive: -0.012	inactive: 0.028	inactive: -0.032	inactive: 0.003	inactive: -0.028
GMEB1 (UniProt Q9Y692)	inactive: -0.12	inactive: -0.048	inactive: -0.04	inactive: -0.036	inactive: -0.06	inactive: 0.001	inactive: 0.019	inactive: 0.044	inactive: -0.204	inactive: -0.03
GLG1 isoform 2 (UniProt Q92896)	inactive: -0.038	inactive: -0.007	inactive: -0.007	inactive: 0.005	inactive: 0	inactive: 0.009	inactive: 0.025	inactive: 0.035	inactive: 0.01	inactive: 0.002
GM2A (UniProt P17900)	inactive: -0.069	inactive: -0.087	inactive: 0.038	inactive: -0.002	inactive: 0.064	inactive: 0.037	inactive: 0.017	inactive: 0.009	inactive: 0.012	inactive: -0.025
GOLPH3 (UniProt Q9H4A6)	inactive: 0.074	inactive: 0.032	inactive: -0.021	inactive: -0.015	inactive: -0.123	inactive: -0.013	inactive: 0.02	inactive: -0.013	inactive: -0.028	inactive: 0.07

Quoted from above for reference:
Target	log2 fold change (bafetinib)	log2 fold change [1]	log2 fold change (nilotinib)	log2 fold change [2]	log2 fold change (dasatinib)	log2 fold change [3]	log2 fold change [4]	log2 fold change [5]	log2 fold change (tipifarnib)	log2 fold change (mubritinib)
GPAT4 (UniProt Q86UL3)	inactive: -0.138	inactive: -0.028	inactive: -0.047	inactive: 0.049	inactive: -0.024	inactive: -0.009	inactive: 0.093	inactive: -0.018	inactive: -0.069	inactive: -0.008
GNB4 (UniProt Q9HAV0)	inactive: 0.071	inactive: 0.051	inactive: 0.22	inactive: 0.066	inactive: 0.107	inactive: -0.043	inactive: 0.018	inactive: -0.174	inactive: -0.061	inactive: 0.07
